# The shares of active, inactive and inconclusive entries below differ from those in the screen. Where the call is inconclusive, the potency comes from a doubtful curve fit. Calls of active or inactive are those of the source. The call rests on the fitted dose curve; in most records, active means well fitted curve in the direction sought with a large enough effect; inconclusive means small, poorly fitted or top-dose-only effect, or another doubt; inactive means no such curve, though single readings can be large; an effect the other way counts as inactive or inconclusive.
# What was measured:
# [1] = molecular target: Retinaldehyde dehydrogenase 3 (Homo sapiens) (UniProt P47895); assay: qHTS for Inhibitors of the Aldehyde Dehydrogenase Family (ALDH1A3) Validation screen (AID 2061312); settings: ALDH1A3 enzyme inhibition qHTS validation, fluorescence; series mostly up to 42.4 µM; further: nearly all actives have a fitted effect of over 45% in size; on activity change, negative = inhibition: on the % scale 0 is the no-effect control and ±100 the full control effect
# [2] = BET inhibitor-based combinations targeting novel dependencies in MECOM-rearranged (r) AML: UCSD-AML1 cell line (AID 2202235); settings: UCSD-AML1 AML cells viability, CellTiter-Glo, 48 h; series mostly up to 46 µM; further: nearly all actives have a fitted effect of over 40% in size
# Outline: (§1)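 Each compound is tested in an 11-point concentration series against 500 seeded cells/well for 48 hr. The luminescent viability signal is normalized to DMSO and blank wells, then reduced to AUC and a cell-line-centred Z-AUC.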
# [3] = BET inhibitor-based combinations targeting novel dependencies in MECOM-rearranged (r) AML: AML-194 cell line (AID 2202237; further: nearly all actives have a fitted effect of over 40% in size); settings: AML-194 (MECOM-r AML) viability, CellTiter-Glo, 48 h; series mostly up to 46 µM
# Outline: (§2)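 A 48 hr incubation preceded viability reading by CellTiter-Glo, with 15 min room-temperature development. Dose series had 11 points; normalization used DMSO and empty wells; AUC was computed and mean-centered per line as Z-AUC.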
# [4] = BET inhibitor-based combinations targeting novel dependencies in MECOM-rearranged (r) AML: SET-2 cell line (AID 2202231); settings: SET-2 AML cells viability, CellTiter-Glo luminescence, 48 h; viability: active compounds read low, concentration not given here; further: nearly all actives have a fitted effect of over 35% in size;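 on viability: plate controls were DMSO treated cells for no effect and wells without cells for full effect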
# Outline: as §2
# [5] = molecular target: Retinaldehyde dehydrogenase 3 (Homo sapiens) (UniProt P47895); assay: qHTS for Inhibitors of the Aldehyde Dehydrogenase Family (ALDH1A3) Primary screen (AID 2061315); settings: ALDH inhibition qHTS; series mostly up to 56 µM;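 on activity change, negative = inhibition: plate controls were DMSO vehicle for no effect and reference inhibitor for full effect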
# [6] = BET inhibitor-based combinations targeting novel dependencies in MECOM-rearranged (r) AML: AML-191 cell line (AID 2202236; further: nearly all actives have a fitted effect of over 35% in size); settings: AML-191 viability, CellTiter-Glo luminescence, 48 h; series mostly up to 46 µM
# Outline: as §2
# [7] = BET inhibitor-based combinations targeting novel dependencies in MECOM-rearranged (r) AML: OCI-AML3 cell line (AID 2202232); settings: CellTiter-Glo luminescence, 48 h; Potency: OCI-AML3 viability; series mostly up to 46 µM; further: nearly all actives have a fitted effect of over 35% in size
# Outline: as §2
# [8] = BET inhibitor-based combinations targeting novel dependencies in MECOM-rearranged (r) AML: MV-4-11 cell line (AID 2202233); settings: MV-4-11 AML viability, CellTiter-Glo luminescence, 48 h; viability, % of control: at 46 µM (top of the series); further: nearly all actives have a fitted effect of over 45% in size;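 on viability, % of control: plate controls were DMSO for no effect and blank wells for full effect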
# Outline: as §1
# [9] = BET inhibitor-based combinations targeting novel dependencies in MECOM-rearranged (r) AML: HNT-34 cell line (AID 2202234); settings: HNT-34 AML viability, CellTiter-Glo luminescence, 48 h; series mostly up to 46 µM; further: nearly all actives have a fitted effect of over 35% in size
# Outline: as §1
# Potency means the concentration at half of the fitted maximal effect.
compound,measurement,setting,value
C=C(C)[C@H]1Cc2c(ccc3c2O[C@@H]2COc4cc(OC)c(OC)cc4[C@@H]2C3=O)O1,Potency,[1],"inconclusive: 20 µM [inhibitor, partial curve, poor fit]"
same,Potency,[2],active: 0.934 µM
same,Potency,[3],active: 0.934 µM
O=C(O)Cc1cnc[nH]1,Potency,[1],"inconclusive: 8.91 µM [inhibitor, partial curve, poor fit]"
C#CCN[C@H](C)Cc1ccccc1,Potency,[1],"inconclusive: 7.08 µM [inhibitor, partial curve, poor fit]"
CCCN1CCC[C@@H](c2cccc(O)c2)C1,Potency,[1],inactive
Fc1cc(F)c2c(c1)[C@H]1C=CC[C@H]1C(c1cccnc1)N2 (some centres not stated),Potency,[1],"inconclusive: 20 µM [inhibitor, full curve]"
Cc1cn(C[C@H](N)C(=O)O)c(=O)n(Cc2cc(-c3ccccc3)sc2C(=O)O)c1=O,Potency,[1],inactive
CCCN1CCO[C@@H]2c3cc(O)ccc3OC[C@H]21,Potency,[1],"inconclusive: 2.82 µM [inhibitor, full curve]"
same,viability,[4],inactive: 92%
CC(N)c1cccc(Cl)c1Cl (configuration not stated),Potency,[1],inactive
CC(O)(c1ccccc1)C(Cc1ccc(Cl)cc1)n1cncn1 (configuration not stated),Potency,[1],"inconclusive: 3.16 µM [inhibitor, full curve, poor fit]"
Cc1c(N2C(=O)[C@@H]3[C@H](O)CCN3C2=O)ccc(C#N)c1Cl,Potency,[1],"inconclusive: 50.1 µM [inhibitor, partial curve, poor fit]"
CC(N[C@H]1C[C@H]1c1ccccc1)c1ccc2c(c1)OCCO2 (some centres not stated),Potency,[1],"inconclusive: 10 µM [inhibitor, full curve, poor fit]"
COc1ccc2[nH]c(-c3ccccc3)c(CCN(C)C)c2c1,Potency,[1],inactive
C#CC1(O)CCC2C3CCC4=CC(=O)CCC4=C3C=CC21C (configuration not stated),Potency,[5],"inconclusive: 35.5 µM [inhibitor, single point]"
CC(C)NC(C)Cc1ccc(I)cc1 (configuration not stated),Potency,[1],inactive
CN1C[C@H](CNC(=O)OCc2ccccc2)C[C@@H]2c3cccc4c3c(cn4C)C[C@H]21,Potency,[1],"inconclusive: 3.55 µM [inhibitor, full curve]"
CC(C)N(CCC(C(N)=O)(c1ccccc1)c1ccccn1)C(C)C (configuration not stated),Potency,[1],inactive
NCc1cc(=O)[nH]o1,Potency,[1],inactive
C[C@H]1CN(CC[C@H](O)C2CCCCC2)CC[C@@]1(C)c1cccc(O)c1,Potency,[1],inactive
CCCn1c(=O)c2[nH]c(C3CCCC3)nc2n(CCCOC(=O)c2ccc(S(=O)(=O)F)cc2)c1=O,Potency,[1],inactive
Cc1sc2c(c1C)C(c1ccc(Cl)cc1)=NC(CC(=O)OC(C)(C)C)c1nnc(C)n1-2 (configuration not stated),Potency,[1],"inconclusive: 44.7 µM [inhibitor, partial curve, poor fit]"
NC(N)=Nc1ccc2[nH]c3c(c2c1)C[C@@]1(O)[C@H]2Cc4ccc(O)c5c4[C@@]1(CCN2CC1CC1)[C@H]3O5,Potency,[1],"inconclusive: 0.562 µM [inhibitor, full curve]"
O=C(N[C@H]1CN2CCC1CC2)c1ccc(Cl)cc1,Potency,[1],inactive
same,Potency,[2],"inconclusive: 33.2 µM [inhibitor, single point]"
CCOC(=O)Nc1ccc(NCc2ccc(F)cc2)cc1N,Potency,[1],"inconclusive: 14.1 µM [inhibitor, partial curve, poor fit]"
same,Potency,[5],"inconclusive: 1.78 µM [inhibitor, full curve, poor fit]"
COc1cc(C)[nH]c(=O)c1CNC(=O)c1c(C)n([C@H](C)C2CCOCC2)c2ccccc12,Potency,[1],"inconclusive: 31.6 µM [inhibitor, partial curve, poor fit]"
same,Potency,[6],inactive
Cc1cc([C@@H]2CCCN2C)on1,Potency,[1],"inconclusive: 0.398 µM [inhibitor, full curve, poor fit]"
CNCCc1ccc(O)c(O)c1,Potency,[1],"inconclusive: 7.94 µM [inhibitor, partial curve, poor fit]"
OCCCCC#Cc1cncc(OC[C@@H]2CCN2)c1,Potency,[1],"inconclusive: 14.1 µM [inhibitor, full curve]"
same,Potency,[5],"inconclusive: 10 µM [inhibitor, partial curve]"
Clc1cnc(Oc2ccc(Oc3ncc(Cl)cc3Cl)cc2)c(Cl)c1,Potency,[1],inactive
CC(C)[C@H](NC(=O)c1nn(Cc2ccc(F)cc2)c2ccccc12)C(N)=O,Potency,[1],"inconclusive: 0.562 µM [inhibitor, full curve, poor fit]"
CNC(=O)c1ccc(N2C(=S)N(c3ccc(C#N)c(C(F)(F)F)c3)C(=O)C23CCC3)cc1F,Potency,[1],"inconclusive: 2.82 µM [inhibitor, full curve, poor fit]"
same,Potency,[7],"inconclusive: 6.61 µM [inhibitor, partial curve, poor fit]"
same,Potency,[8],"inconclusive: 29.5 µM [inhibitor, partial curve, poor fit]"
same,Potency,[9],"inconclusive: 20.9 µM [inhibitor, partial curve]"
same,Potency,[2],"inconclusive: 20.9 µM [inhibitor, partial curve, poor fit]"
Cc1cccc(C)c1NC(=O)CN1CCCC1=O,viability,[4],inactive: 109%
same,Potency,[8],inactive
COc1cc2c(c(OC)c1OC)-c1ccc(SC)c(=O)cc1[C@@H](NC(C)=O)CC2,Potency,[5],"inconclusive: 3.16 µM [inhibitor, partial curve, poor fit]"
CN1C(=O)[C@@H](Cc2c[nH]c3ccccc23)N=C(c2ccccc2F)c2ccccc21,Potency,[5],inactive
CS[C@]1(CO)C(=O)N2[C@H]3C(=CC=C[C@@H]3O)C[C@@]2(SC)C(=O)N1C,Potency,[5],"inconclusive: 10 µM [inhibitor, partial curve]"
COC(=O)[C@]12CCCC(C)(C)C1CCc1cc(C(C)C)c(O)c(O)c12 (some centres not stated),Potency,[5],"inconclusive: 11.2 µM [inhibitor, partial curve, poor fit]"
CC(=O)OC12C(O)C(C)C3(O)C4C=C(C)C(=O)C4CC(CO)=CC3C1C2(C)C (configuration not stated),Potency,[5],"inconclusive: 7.94 µM [inhibitor, partial curve]"
Cc1ccc2c(c1)[C@H]1CN(C)CC[C@H]1N2C(=O)CSc1nnnn1-c1ccc(Cl)cc1,Potency,[5],inactive
Cc1cccc(NC(=O)NC2N=C(c3ccccc3)c3ccccc3N(CC(=O)c3ccccc3C)C2=O)c1 (configuration not stated),Potency,[5],inactive
C[C@@H]1CCC2[C@@H](C)C(=O)OC3O[C@@]4(C)CCC1[C@]32OO4 (some centres not stated),Potency,[5],inactive
C=CCN1CC[C@]23c4c5ccc(O)c4O[C@H]2[C@@H](O)CC[C@@]3(O)[C@H]1C5,Potency,[5],"inconclusive: 39.8 µM [inhibitor, single point]"
C=CC(C)(C)c1[nH]c2c(CC=C(C)C)cc(CC=C(C)C)cc2c1C[C@@H]1NC(=O)[C@H](C)NC1=O,Potency,[5],"inconclusive: 2 µM [inhibitor, full curve, poor fit]"
CC1CCCC(O)CCC/C=C/c2cc(O)cc(O)c2C(=O)O1 (configuration not stated),Potency,[5],"inconclusive: 10 µM [inhibitor, single point]"
COc1cc2c(cc1F)C(c1ccccc1Cl)=Nc1c(n[nH]c1C)N2,Potency,[4],active: 13.2 µM
same,Potency,[9],"inconclusive: 3.32 µM [inhibitor, full curve, poor fit]"
same,Potency,[2],"inconclusive: 2.95 µM [inhibitor, full curve]"
CC(N[C@H]1C[C@@H]1c1ccccc1)c1ccc2c(c1)OCCO2 (some centres not stated),Potency,[4],"inconclusive: 0.662 µM [inhibitor, full curve]"
same,Potency,[9],inactive
C=C(C)[C@@H]1CCC(C)=C[C@H]1c1c(O)cc(CCCCC)cc1O,Potency,[4],"inconclusive: 29.5 µM [inhibitor, single point]"
same,Potency,[8],active: 18.6 µM
same,Potency,[9],"inconclusive: 33.2 µM [inhibitor, single point]"
same,Potency,[2],"inconclusive: 33.2 µM [inhibitor, single point]"
same,Potency,[6],"inconclusive: 37.2 µM [inhibitor, single point]"
same,Potency,[3],"inconclusive: 33.2 µM [inhibitor, single point]"
COc1cc2c(cc1O)C1(C)CCC(O)C(C)(C)C1CC2=O (configuration not stated),Potency,[5],"inconclusive: 39.8 µM [inhibitor, partial curve, poor fit]"
COc1cc2cc(c1Cl)N(C)C(=O)C[C@H](OC(=O)C(C)C)[C@]1(C)O[C@@H]1[C@H](C)[C@@H]1C[C@@](O)(NC(=O)O1)[C@H](OC)/C=C/C=C(\C)C2,Potency,[4],active: 0.0021 µM
same,Potency,[9],inactive
same,Potency,[6],inactive
COc1ccc(N(C(=O)Oc2c(C)cccc2C)c2ccnc(Nc3ccc(N4CCN(C)CC4)cc3)n2)c(OC)c1,viability,[4],inactive: 117%
same,Potency,[8],"inconclusive: 2.35 µM [inhibitor, full curve]"
Cc1ncc(OC[C@@]2(c3cccc(F)c3)C[C@H]2C(=O)Nc2ccc(F)cn2)c(C)n1,viability,[4],inactive: 92.7%
same,Potency,[7],inactive
O=C(O)C1=CCCN(CCOC(c2ccc(C(F)(F)F)cc2)c2ccc(C(F)(F)F)cc2)C1,Potency,[4],"inconclusive: 33.2 µM [inhibitor, single point]"
same,Potency,[7],"inconclusive: 18.6 µM [inhibitor, partial curve, poor fit]"
same,Potency,[9],"inconclusive: 33.2 µM [inhibitor, partial curve, poor fit]"
same,Potency,[2],"inconclusive: 29.5 µM [inhibitor, partial curve, poor fit]"
same,Potency,[3],inactive
Oc1ccc2c3c1O[C@H]1[C@H](N(CCCl)CCCl)CC[C@@]4(O)[C@@H](C2)N(CC2CC2)CC[C@]314,"activity change, negative = inhibition",[5],inactive: -18.8% [at 11.2 µM]
COC[C@@H](NC(C)=O)C(=O)NCc1ccccc1,viability,[4],inactive: 112%
same,Potency,[8],inactive
OC1(c2ccc(Cl)cc2)c2ccccc2C2=NCCN21 (configuration not stated),Potency,[5],inactive
O=C(NCCCNc1nc(Nc2ccc(N3CCOCC3)cc2)ncc1C1CC1)C1CCC1,Potency,[4],"inconclusive: 9.34 µM [inhibitor, partial curve]"
same,Potency,[9],active: 13.2 µM
same,Potency,[2],active: 9.34 µM
same,Potency,[6],"inconclusive: 18.6 µM [inhibitor, partial curve, poor fit]"
same,Potency,[3],"inconclusive: 11.8 µM [inhibitor, partial curve]"

# Given bar-delimited: entries from further up.
compound | measurement | setting | value
Cc1cccc(C)c1NC(=O)CN1CCCC1=O | Potency | [8] | inactive
COc1cc2c(c(OC)c1OC)-c1ccc(SC)c(=O)cc1[C@@H](NC(C)=O)CC2 | Potency | [5] | inconclusive: 3.16 µM [inhibitor, partial curve, poor fit]
CN1C(=O)[C@@H](Cc2c[nH]c3ccccc23)N=C(c2ccccc2F)c2ccccc21 | Potency | [5] | inactive
CS[C@]1(CO)C(=O)N2[C@H]3C(=CC=C[C@@H]3O)C[C@@]2(SC)C(=O)N1C | Potency | [5] | inconclusive: 10 µM [inhibitor, partial curve]

# — PubChem BioAssay (NCATS)
